Measurements as given in the supplement of paper PMC10331698.
± gives the standard deviation of the averaged measurements. Most entries show no effect beyond the scatter of the controls.

Assays:
Test in all cases: level (log10 ratio to DMSO vehicle control); higher = higher biomarker level / cell amount than vehicle control
[1] = compound: O=C(O)C(F)(F)OC(F)(F)C(F)(F)OC(F)(F)C(F)(F)C(F)(F)C(F)(F)F [Perfluoro-3,6-dioxadecanoic acid]; conditions: 2200 nM; in DMSO
Protocol: (§1)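 BioMAP Diversity Plus panel of 12 human primary cell co-culture systems (3C, 4H, LPS, SAg, BT, BF4T, BE3C, CASM3C, HDF3CGF, KF3CT, MyoF, Mphg). Compounds were added 1 h before stimulation and left for 24 h (MyoF 48 h; BT 72 h for soluble read-outs or 6 d for IgG). Biomarkers were read by ELISA, cytotoxicity by SRB, PBMC viability and proliferation by Alamar Blue. Each well value was divided by the mean of 8 DMSO control wells on the same plate and log10 transformed; duplicate blinded samples were tested at 4 concentrations.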

[2] = compound: FC(F)C(F)(F)COCC1CO1 [((2,2,3,3-Tetrafluoropropoxy)methyl)oxirane]; conditions: 2200 nM; in DMSO
Protocol: as §1

[3] = compound: C=CC(=O)OCC(F)(F)C(F)(F)C(F)(F)C(F)(F)COC(=O)C=C [1H,1H,6H,6H-Perfluorohexane-1,6-diol diacrylate]; conditions: 2200 nM; in DMSO
Protocol: as §1

[4] = compound: O=C(O)C(F)(F)C(F)(F)C(F)(F)F [Perfluorobutanoic acid]; conditions: 2200 nM; in DMSO
Protocol: as §1

[5] = compound: O=C(O)C(F)(F)C(F)(F)F [Perfluoropropanoic acid]; conditions: 2200 nM; in DMSO
Protocol: as §1

[6] = compound: O=C(O)C(F)(F)OC(F)(F)C(F)(F)OC(F)(F)C(=O)O [Perfluoro-3,6-dioxaoctane-1,8-dioic acid]; conditions: 2200 nM; in DMSO
Protocol: as §1

[7] = compound: OCC(F)(F)C(F)(F)C(F)(F)C(F)(F)C(F)(F)C(F)(F)C(F)(F)C(F)(F)C(F)(F)C(F)(F)C(F)(F)F [11:1 Fluorotelomer alcohol]; conditions: in DMSO
Protocol: as §1

[8] = compound: O=C(O)C(F)(F)C(F)(F)OC(F)(F)F [Perfluoro-3-methoxypropanoic acid]; conditions: 2200 nM; in DMSO
Protocol: as §1

[9] = compound: FC(F)(F)C(F)(F)C(F)(F)C(F)(F)C(F)(F)C(F)(F)C(F)(F)CCI [1-Iodo-1H,1H,2H,2H-perfluorononane]; conditions: in DMSO
Protocol: as §1

[10] = compound: NC(=O)C(F)(F)C(F)(F)C(F)(F)C(F)(F)C(F)(F)C(F)(F)C(F)(F)F [Perfluorooctanamide]; conditions: 2200 nM; in DMSO
Protocol: as §1

[11] = compound: O=C(O)C=CC(F)(C(F)(F)F)C(F)(F)F [3-(Perfluoroisopropyl)-2-propenoic acid]; conditions: in DMSO
Protocol: as §1

[12] = compound: O=S(=O)(Cl)C(F)(F)C(F)(F)C(F)(F)C(F)(F)C(F)(F)C(F)(F)C(F)(F)C(F)(F)F [Perfluoro-1-octanesulfonyl chloride]; conditions: 2200 nM; in DMSO
Protocol: as §1

[13] = compound: OCCC(F)(F)C(F)(F)C(F)(F)C(F)(F)C(F)(F)C(F)(F)C(F)(F)C(F)(F)F [8:2 Fluorotelomer alcohol]; conditions: 2200 nM; in DMSO
Protocol: as §1

[14] = compound: C=C(C)C(=O)OCC(F)(F)C(F)(F)C(F)(F)F [2,2,3,3,4,4,4-Heptafluorobutyl methacrylate]; conditions: 2200 nM; in DMSO
Protocol: as §1

[15] = compound: O=C(O)C(F)(F)C(F)(F)C(F)(F)C(F)(F)C(F)(F)C(F)(F)C(F)(F)C(F)(F)C(F)(F)C(F)(F)F [Perfluoroundecanoic acid]; conditions: in DMSO
Protocol: as §1

[16] = compound: O=P(O)(O)CCC(F)(F)C(F)(F)C(F)(F)C(F)(F)C(F)(F)C(F)(F)C(F)(F)C(F)(F)F [((Perfluorooctyl)ethyl)phosphonic acid]; conditions: 2200 nM; in DMSO
Protocol: as §1

[17] = compound: O=C(O)C(F)(F)C(F)(F)C(F)(F)C(F)(F)C(F)(F)C(F)(F)C(F)(F)C(F)F [9-H-Perfluorononanoic acid]; conditions: 2200 nM; in DMSO
Protocol: as §1

[18] = compound: FC(F)(F)C(F)(F)C(F)(F)C(F)(F)C(F)(F)C(F)(F)C(F)(F)I [1-Iodopentadecafluoroheptane]; conditions: in DMSO
Protocol: as §1

Test System	level (log10) [1]	level (log10) [2]	level (log10) [3]	level (log10) [4]	level (log10) [5]	level (log10) [6]	level (log10) ([7]; 370 nM)	level (log10) ([7]; 1100 nM)	level (log10) ([7]; 3300 nM)	level (log10) ([7]; 10000 nM)	level (log10) [8]	level (log10) ([9]; 740 nM)	level (log10) ([9]; 2200 nM)	level (log10) ([9]; 6700 nM)	level (log10) ([9]; 20000 nM)	level (log10) [10]	level (log10) ([11]; 2200 nM)	level (log10) ([11]; 6700 nM)	level (log10) ([11]; 20000 nM)	level (log10) ([11]; 60000 nM)	level (log10) [12]	level (log10) [13]	level (log10) [14]	level (log10) ([15]; 740 nM)	level (log10) ([15]; 2200 nM)	level (log10) [16]	level (log10) [17]	level (log10) ([18]; 740 nM)	level (log10) ([18]; 2200 nM)	level (log10) ([18]; 6700 nM)	level (log10) ([18]; 20000 nM)
MyoF:TIMP-1	0.0335 ± 0.0021	0.002 ± 0.021	0.0015 ± 0.005	-0.0385 ± 0.059	0.0745 ± 0.073	0.0005 ± 0.063	0.006 ± 0.033	0.0095 ± 0.05	0.015 ± 0.048	0.011 ± 0.02	0.0025 ± 0.026	-0.0185 ± 0.026	0.008 ± 0.048	-0.002 ± 0.054	0.0165 ± 0.042	-0.006 ± 0.031	0.0135 ± 0.035	-0.0285 ± 0.00071	-0.0085 ± 0.013	0.0535 ± 0.037	0.003 ± 0.05	-0.006 ± 0.021	0.0295 ± 0.016	-0.067 ± 0.096	-0.057 ± 0.052	0.0545 ± 0.026	-0.0185 ± 0.0035	-0.0155 ± 0.021	0.008 ± 0.0014	0.049 ± 0.0057	-0.0605 ± 0.0092
BE3C:EGFR	-0.0065 ± 0.011	-0.0035 ± 0.012	0.0095 ± 0.021	-0.0035 ± 0.018	0.002 ± 0.011	0.0125 ± 0.043	0.0045 ± 0.029	-0.022 ± 0.011	-0.003 ± 0.018	-0.019 ± 0.0099	-0.0005 ± 0.081	0.009 ± 0.028	-0.0005 ± 0.0035	0.005 ± 0.014	-0.008 ± 0.02	0.004 ± 0.028	-0.007 ± 0.025	0.0005 ± 0.016	0.0085 ± 0.00071	0.004 ± 0.0014	-0.003 ± 0.014	-0.005 ± 0.0099	0.025 ± 0.016	0.018 ± 0.017	0.0205 ± 0.011	0.0015 ± 0.016	-0.0215 ± 0.005	0.012 ± 0.023	0.051 ± 0.013	0.014 ± 0.0071	0.0185 ± 0.026
